Drawing on PMC3534055, this text covers binding for two substances.

The chains behind the UniProt entries cited, without tags or fusion partners. Where a name states a change or a piece, a line headed by the entry shows the natural chain unless it says otherwise. A line that says so, or that is headed by a name, gives the form on record, which may keep a tag or linker. Residues count along the entry.
Fms-like tyrosine kinase 3 (Flt3), wild type (P36888, residues 27-993): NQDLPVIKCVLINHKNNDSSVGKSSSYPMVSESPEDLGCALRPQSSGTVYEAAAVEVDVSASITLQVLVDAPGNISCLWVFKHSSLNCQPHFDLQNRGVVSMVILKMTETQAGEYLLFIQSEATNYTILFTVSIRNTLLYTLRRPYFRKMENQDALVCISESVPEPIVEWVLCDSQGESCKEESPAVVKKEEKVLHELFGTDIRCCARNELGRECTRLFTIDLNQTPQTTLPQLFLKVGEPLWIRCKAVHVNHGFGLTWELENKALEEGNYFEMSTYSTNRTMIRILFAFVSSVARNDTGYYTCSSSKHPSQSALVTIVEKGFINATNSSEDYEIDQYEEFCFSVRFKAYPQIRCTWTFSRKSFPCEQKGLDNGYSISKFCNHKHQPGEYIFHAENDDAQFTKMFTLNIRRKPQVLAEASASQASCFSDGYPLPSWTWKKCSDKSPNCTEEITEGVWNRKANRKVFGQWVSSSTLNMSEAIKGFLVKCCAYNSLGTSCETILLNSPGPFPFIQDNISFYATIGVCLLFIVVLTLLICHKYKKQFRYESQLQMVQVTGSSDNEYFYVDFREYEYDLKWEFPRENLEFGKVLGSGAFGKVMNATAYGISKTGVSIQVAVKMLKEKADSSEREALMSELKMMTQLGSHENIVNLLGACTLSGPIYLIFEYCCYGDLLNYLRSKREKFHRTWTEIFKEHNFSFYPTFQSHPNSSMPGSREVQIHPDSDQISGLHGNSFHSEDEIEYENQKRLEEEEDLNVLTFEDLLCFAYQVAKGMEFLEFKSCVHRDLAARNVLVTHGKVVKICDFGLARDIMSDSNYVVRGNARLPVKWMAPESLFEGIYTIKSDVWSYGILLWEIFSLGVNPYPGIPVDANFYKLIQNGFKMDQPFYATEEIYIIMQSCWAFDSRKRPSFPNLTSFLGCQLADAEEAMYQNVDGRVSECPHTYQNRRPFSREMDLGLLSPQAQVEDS
Flt3-Y589F/Y591F/Y599F (P36888, form named): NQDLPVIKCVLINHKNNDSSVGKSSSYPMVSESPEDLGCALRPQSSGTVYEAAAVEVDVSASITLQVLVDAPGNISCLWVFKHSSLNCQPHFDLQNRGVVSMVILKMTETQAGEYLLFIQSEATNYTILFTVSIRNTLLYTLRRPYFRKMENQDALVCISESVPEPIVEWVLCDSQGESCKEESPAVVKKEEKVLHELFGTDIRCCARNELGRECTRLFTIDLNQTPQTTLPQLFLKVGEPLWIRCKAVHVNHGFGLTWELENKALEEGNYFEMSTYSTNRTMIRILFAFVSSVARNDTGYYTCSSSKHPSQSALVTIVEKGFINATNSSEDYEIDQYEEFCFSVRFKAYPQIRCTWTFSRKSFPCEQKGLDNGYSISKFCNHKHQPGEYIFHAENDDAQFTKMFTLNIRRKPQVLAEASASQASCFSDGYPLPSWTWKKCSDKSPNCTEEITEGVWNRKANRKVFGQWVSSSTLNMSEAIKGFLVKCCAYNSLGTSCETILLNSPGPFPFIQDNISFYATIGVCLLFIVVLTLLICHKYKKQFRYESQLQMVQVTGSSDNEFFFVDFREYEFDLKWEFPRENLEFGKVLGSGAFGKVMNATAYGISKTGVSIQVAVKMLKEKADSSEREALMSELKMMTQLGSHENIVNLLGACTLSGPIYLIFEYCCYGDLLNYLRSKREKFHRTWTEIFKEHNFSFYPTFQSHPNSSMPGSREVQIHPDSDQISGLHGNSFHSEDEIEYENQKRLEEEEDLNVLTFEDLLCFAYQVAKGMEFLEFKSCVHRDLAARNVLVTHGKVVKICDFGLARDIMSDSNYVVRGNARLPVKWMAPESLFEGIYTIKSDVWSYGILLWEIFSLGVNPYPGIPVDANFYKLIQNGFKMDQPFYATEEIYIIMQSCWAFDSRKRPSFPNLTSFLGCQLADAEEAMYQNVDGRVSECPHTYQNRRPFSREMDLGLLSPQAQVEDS

This test addresses T1, Src-like adaptor protein (SLAP), FLAG-tagged (UniProt Q13239).
T1 sequence: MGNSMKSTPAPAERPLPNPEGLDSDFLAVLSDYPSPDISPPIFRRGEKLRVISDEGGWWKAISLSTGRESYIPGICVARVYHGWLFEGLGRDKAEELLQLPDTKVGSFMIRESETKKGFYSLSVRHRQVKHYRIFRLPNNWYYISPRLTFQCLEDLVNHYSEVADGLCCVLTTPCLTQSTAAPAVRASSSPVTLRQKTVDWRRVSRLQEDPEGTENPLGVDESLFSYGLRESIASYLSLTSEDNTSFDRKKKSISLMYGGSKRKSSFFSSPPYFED
The test is described as follows: co-IP; COS-1 cells co-transfected with SLAP-FLAG and Flt3 constructs, serum-starved overnight, stimulated with 100 ng/ml FL or not (5 min, or a time course up to 2 hours); 1% Triton X100 lysates immunoprecipitated with anti-FLAG or anti-Flt3 antibody, Western blotting. On the technique in general: In western blotting, separated proteins are transferred to a membrane and probed.

These are yes or no findings as the source states them, for the method shown. Binding seen in cells or lysates may run through a third protein. Some entries that bind do so weakly or less than the wild type. Sequences can lack the tags named with a protein.

For the substance “Flt3-Y589F/Y591F/Y599F (from UniProt P36888 27-993) (receptor)”, the binding result was “binds”.

For “Fms-like tyrosine kinase 3 (Flt3), wild type (from UniProt P36888 27-993) (receptor)”, the binding result is listed as “binds”.
